In patent publication US11358989B2, “Apratyramide therapeutic agents and methods of treatment” (University of Florida Research Foundation, Incorporated, priority 2017, dated 2022):

Tested on: HaCaT cells
Assay: Transcriptome profiling of HaCaT cells (Human Transcriptome Array 2.0, IPA)
Type: cell-based
Settings: 30 μM, 12 h
Method: HaCaT cells were seeded in 6-well plates at a density of 2×10^5 per well and incubated further for 24 h in supplement-free medium prior to treatment. RNA was isolated at 3, 12 or 16 h post treatment using the RNeasy mini kit (QIAGEN, Valencia, Calif.). Total RNA was quantified using NanoDrop 2000. From 2 μg of total RNA, cDNA synthesis was done using SuperScript II Reverse Transcriptase (Invitrogen, Carlsbad, Calif.) and oligo (dT) (Invitrogen).
RNA was analyzed using a NanoDrop spectrophotometer and Agilent 2100 Bioanalyzer to determine the RNA concentration and quality, respectively. RNA samples were processed using the GeneChip WT PLUS Reagent Kit (Affymetrix, Santa Clara, Calif.) according to the manufacturer's instruction. In brief, 250 ng of RNA were used for cDNA synthesis by reverse transcription, and the cDNA was utilized as a template for the biotin-labeled RNA prepared by in vitro transcription reaction. The labeled RNA was further purified, fragmented, and hybridized with rotation at 45° C. for 16 h to the GeneChip™ Human Transcriptome Array 2.0. The arrays were washed and stained using the GeneChip Hybridization Wash and Stain kit on an Affymetrix Fluidics Station 450. The chips were scanned using a GeneChip 7G Scanner. […]

In the case of `CC[C@H](C)[C@@H](OC(=O)[C@H](Cc1ccc(OC)cc1)N(C)C)C(=O)N[C@H](C(=O)N(C)[C@@H](Cc1ccc(O)cc1)C(=O)N(C)[C@@H](Cc1ccc(O)cc1)C(=O)OC)C(C)C` [Compound 1, Apratyramide], the “number of differentially expressed genes” value (P<0.05 FDR corrected, fold change >1.5 or <0.67) is reported as 371 and the “top canonical pathway by IPA analysis” value (p-value 1.45×10^−16) is reported as “unfolded protein response (UPR)”.
